# Source: the supplement of paper PMC8728848
# The other results are listed elsewhere or left out.
# B1: PX14343C-bfa-541-26-541 (Bacteroides fragilis) (protein)
# chain: KAPLDEIADDSFWSDETLVKYYVNDLYSEISVDGLQLQENRSDNSVSAQRDKYRASWFKFNYDMVSASDPQDDDVWEDYYVKVRKCNRFFERIGTSTIEESEKSRLTGEVHFLRAMFYFEMVKRYGGVILLDKVLTMEDNWEIPRSSEKECYDFILEDLKKATEMLPASYGSREKGRATKGAAYALKSRVELYDKRYEDVIKSCAEVYKLGYELVDGTTPEKYRSIWWTTNKDNKEIIFDVQYKSPDVYNNMMVCNMVTYINDKYGDRGWGGLGPTQELIDAFEMADGTPATQYSQAPADQVFDINTCGIYEGREPRFYANIVFHGSQIFFNADKGAVTVDRYLMDTPDKGDGSLTGYNVWKWIDYDNYNYPYAGAGSPDFSTNWIILRYAEIYLNDAEARLETGDVEGARKAVNMIRQRVGLPDLTESDPEKLRELIRKERRIEFAFEEQRFYDVRRWKIGPETQTTLHGVRFVSPTEFKVTKTDIRTWNDRLYLTPVPHDEIVRSSVLKQNLGY
# Columns and labels:
# Assay in all cases: glycan array binding signal (z-score within array); higher = stronger binding
# Conditions in all cases: glycan notation: IUPAC condensed, linker removed
# Gal(b1-2)Gal = target: Gal(b1-2)Gal
# Procedure, shortened: (§1)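 Arrays were curated from the Consortium for Functional Glycomics database, 3228 in total, and kept only where the protein sequence was available. Binding is expressed as a within-array Z-score. This score was averaged across arrays of the same protein sequence at different concentrations or buffers and across linkers, and negative values can be read as non-binding.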
# Gal(b1-3)Gal = target: Gal(b1-3)Gal
# Procedure, shortened: as §1
# Gal(b1-3)Gal(b1-4)GlcNAc = target: Gal(b1-3)Gal(b1-4)GlcNAc
# Procedure, shortened: as §1
# Gal(b1-3)GalNAc = target: Gal(b1-3)GalNAc
# Procedure, shortened: as §1
# [1] = target: Gal(b1-3)GalNAc(a1-3)[Fuc(a1-2)]Gal(b1-4)Glc
# Procedure, shortened: as §1
# [2] = target: Gal(b1-3)GalNAc(a1-3)[Fuc(a1-2)]Gal(b1-4)GlcNAc
# Procedure, shortened: as §1
# Gal(b1-3)GalNAc(b1-3)Gal = target: Gal(b1-3)GalNAc(b1-3)Gal
# Procedure, shortened: as §1
# [3] = target: Gal(b1-3)GalNAc(b1-3)Gal(a1-4)Gal(b1-4)Glc
# Procedure, shortened: as §1
# [4] = target: Gal(b1-3)GalNAc(b1-4)Gal(b1-4)Glc
# Procedure, shortened: as §1
# [5] = target: Gal(b1-3)GalNAc(b1-4)[Neu5Ac(a2-3)]Gal(b1-4)Glc
# Procedure, shortened: as §1
# Gal(b1-3)GlcNAc = target: Gal(b1-3)GlcNAc
# Procedure, shortened: as §1
# [6] = target: Gal(b1-3)GlcNAc(a1-3)Gal(b1-4)GlcNAc
# Procedure, shortened: as §1
# [7] = target: Gal(b1-3)GlcNAc(a1-6)Gal(b1-4)GlcNAc
# Procedure, shortened: as §1
# Gal(b1-3)GlcNAc(b1-2)Man = target: Gal(b1-3)GlcNAc(b1-2)Man
# Procedure, shortened: as §1
# [8] = target: Gal(b1-3)GlcNAc(b1-2)Man(a1-3)[Gal(b1-3)GlcNAc(b1-2)Man(a1-6)]Man(b1-4)GlcNAc(b1-4)GlcNAc
# Procedure, shortened: as §1
# [9] = target: Gal(b1-3)GlcNAc(b1-2)Man(a1-3)[Gal(b1-3)GlcNAc(b1-2)Man(a1-6)]Man(b1-4)GlcNAc(b1-4)[Fuc(a1-6)]GlcNAc
# Procedure, shortened: as §1
# [10] = target: Gal(b1-3)GlcNAc(b1-2)Man(a1-3)[GlcNAc(b1-4)][Gal(b1-3)GlcNAc(b1-2)Man(a1-6)]Man(b1-4)GlcNAc(b1-4)GlcNAc
# Procedure, shortened: as §1
# [11] = target: Gal(b1-3)GlcNAc(b1-2)[Gal(b1-3)GlcNAc(b1-6)]Man(a1-6)[Gal(b1-3)GlcNAc(b1-2)Man(a1-3)]Man(b1-4)GlcNAc(b1-4)GlcNAc
# Procedure, shortened: as §1
# [12] = target: Gal(b1-3)GlcNAc(b1-3)Gal(b1-3)GlcNAc
# Procedure, shortened: as §1
# [13] = target: Gal(b1-3)GlcNAc(b1-3)Gal(b1-4)Glc
# Procedure, shortened: as §1
# [14] = target: Gal(b1-3)GlcNAc(b1-3)Gal(b1-4)GlcNAc
# Procedure, shortened: as §1
# [15] = target: Gal(b1-3)GlcNAc(b1-3)Gal(b1-4)GlcNAc(b1-2)Man(a1-3)[Gal(b1-3)GlcNAc(b1-3)Gal(b1-4)GlcNAc(b1-2)Man(a1-6)]Man(b1-4)GlcNAc(b1-4)GlcNAc
# Procedure, shortened: as §1
# [16] = target: Gal(b1-3)GlcNAc(b1-3)Gal(b1-4)GlcNAc(b1-2)[Gal(b1-3)GlcNAc(b1-3)Gal(b1-4)GlcNAc(b1-6)]Man(a1-6)[Gal(b1-3)GlcNAc(b1-3)Gal(b1-4)GlcNAc(b1-2)Man(a1-3)]Man(b1-4)GlcNAc(b1-4)[Fuc(a1-6)]GlcNAc
# Procedure, shortened: as §1
# [17] = target: Gal(b1-3)GlcNAc(b1-3)Gal(b1-4)GlcNAc(b1-3)Gal(b1-4)GlcNAc(b1-2)[Gal(b1-3)GlcNAc(b1-3)Gal(b1-4)GlcNAc(b1-3)Gal(b1-4)GlcNAc(b1-6)]Man(a1-6)[Gal(b1-3)GlcNAc(b1-3)Gal(b1-4)GlcNAc(b1-3)Gal(b1-4)GlcNAc(b1-2)Man(a1-3)]Man(b1-4)GlcNAc(b1-4)[Fuc(a1-6)]GlcNAc
# Procedure, shortened: as §1
# [18] = target: Gal(b1-3)GlcNAc(b1-3)Gal(b1-4)GlcNAc(b1-6)[Gal(b1-3)GlcNAc(b1-3)]Gal(b1-4)Glc
# Procedure, shortened: as §1
# [19] = target: Gal(b1-3)GlcNAc(b1-3)Gal(b1-4)[Fuc(a1-3)]GlcNAc
# Procedure, shortened: as §1
# [20] = target: Gal(b1-3)GlcNAc(b1-3)Gal(b1-4)[Fuc(a1-3)]GlcNAc(b1-6)[Gal(b1-3)GlcNAc(b1-3)]Gal(b1-4)Glc
# Procedure, shortened: as §1
# [21] = target: Gal(b1-3)GlcNAc(b1-3)GalNAc
# Procedure, shortened: as §1
# [22] = target: Gal(b1-3)GlcNAc(b1-6)Gal(b1-4)GlcNAc
# Procedure, shortened: as §1
# [23] = target: Gal(b1-3)GlcNAc(b1-6)GalNAc
# Procedure, shortened: as §1
# [24] = target: Gal(b1-3)GlcNAc(b1-6)[Gal(b1-3)]GalNAc
# Procedure, shortened: as §1
# Gal(b1-3)GlcNAc6S = target: Gal(b1-3)GlcNAc6S
# Procedure, shortened: as §1
# [25] = target: Gal(b1-3)[Fuc(a1-4)]GlcNAc
# Procedure, shortened: as §1
# [26] = target: Gal(b1-3)[Fuc(a1-4)]GlcNAc(b1-2)Man
# Procedure, shortened: as §1
# [27] = target: Gal(b1-3)[Fuc(a1-4)]GlcNAc(b1-2)Man(a1-3)[Gal(b1-3)[Fuc(a1-4)]GlcNAc(b1-2)Man(a1-6)]Man(b1-4)GlcNAc(b1-4)[Fuc(a1-6)]GlcNAc
# Procedure, shortened: as §1
# [28] = target: Gal(b1-3)[Fuc(a1-4)]GlcNAc(b1-3)Gal(b1-3)[Fuc(a1-4)]GlcNAc
# Procedure, shortened: as §1
# [29] = target: Gal(b1-3)[Fuc(a1-4)]GlcNAc(b1-3)Gal(b1-4)[Fuc(a1-3)]GlcNAc
# Procedure, shortened: as §1
binder,measurement,setting,value
B1,glycan array binding signal (z-score),Gal(b1-2)Gal,-0.389
same,glycan array binding signal (z-score),Gal(b1-3)Gal,0.156
same,glycan array binding signal (z-score),Gal(b1-3)Gal(b1-4)GlcNAc,0.007
same,glycan array binding signal (z-score),Gal(b1-3)GalNAc,0.283
same,glycan array binding signal (z-score),[1],-0.508
same,glycan array binding signal (z-score),[2],-1.13
same,glycan array binding signal (z-score),Gal(b1-3)GalNAc(b1-3)Gal,-0.768
same,glycan array binding signal (z-score),[3],-0.233
same,glycan array binding signal (z-score),[4],-0.284
same,glycan array binding signal (z-score),[5],-0.243
same,glycan array binding signal (z-score),Gal(b1-3)GlcNAc,-0.472
same,glycan array binding signal (z-score),[6],-1.03
same,glycan array binding signal (z-score),[7],-0.071
same,glycan array binding signal (z-score),Gal(b1-3)GlcNAc(b1-2)Man,0.108
same,glycan array binding signal (z-score),[8],2.98
same,glycan array binding signal (z-score),[9],0.747
same,glycan array binding signal (z-score),[10],-0.624
same,glycan array binding signal (z-score),[11],0.558
same,glycan array binding signal (z-score),[12],0.115
same,glycan array binding signal (z-score),[13],0.369
same,glycan array binding signal (z-score),[14],1.35
same,glycan array binding signal (z-score),[15],1.24
same,glycan array binding signal (z-score),[16],0.437
same,glycan array binding signal (z-score),[17],1.66
same,glycan array binding signal (z-score),[18],-0.748
same,glycan array binding signal (z-score),[19],-0.314
same,glycan array binding signal (z-score),[20],-0.365
same,glycan array binding signal (z-score),[21],0.08
same,glycan array binding signal (z-score),[22],-0.475
same,glycan array binding signal (z-score),[23],-0.625
same,glycan array binding signal (z-score),[24],0.155
same,glycan array binding signal (z-score),Gal(b1-3)GlcNAc6S,0.281
same,glycan array binding signal (z-score),[25],-0.74
same,glycan array binding signal (z-score),[26],-0.63
same,glycan array binding signal (z-score),[27],-0.223
same,glycan array binding signal (z-score),[28],-1.19
same,glycan array binding signal (z-score),[29],-0.835

# 2 records picked at random from the list so far:
binder,measurement,setting,value
B1,glycan array binding signal (z-score),[6],-1.03
same,glycan array binding signal (z-score),[5],-0.243
